For test [1], the target named is Neuropilin-2 (NRP2) (mouse (endogenous in mLMECs)) (UniProt O35375). The test is described as follows: affinity purification with mass spectrometry; NRP2 immunoprecipitates from two WT EC lines, control against NRP2 siRNA; label-free quantitative mass spectrometry, MaxQuant.
Test [2] has as its target T1, Neuropilin-2 (NRP2) (mouse (endogenous in mLMECs)), O35375.
T1 chain: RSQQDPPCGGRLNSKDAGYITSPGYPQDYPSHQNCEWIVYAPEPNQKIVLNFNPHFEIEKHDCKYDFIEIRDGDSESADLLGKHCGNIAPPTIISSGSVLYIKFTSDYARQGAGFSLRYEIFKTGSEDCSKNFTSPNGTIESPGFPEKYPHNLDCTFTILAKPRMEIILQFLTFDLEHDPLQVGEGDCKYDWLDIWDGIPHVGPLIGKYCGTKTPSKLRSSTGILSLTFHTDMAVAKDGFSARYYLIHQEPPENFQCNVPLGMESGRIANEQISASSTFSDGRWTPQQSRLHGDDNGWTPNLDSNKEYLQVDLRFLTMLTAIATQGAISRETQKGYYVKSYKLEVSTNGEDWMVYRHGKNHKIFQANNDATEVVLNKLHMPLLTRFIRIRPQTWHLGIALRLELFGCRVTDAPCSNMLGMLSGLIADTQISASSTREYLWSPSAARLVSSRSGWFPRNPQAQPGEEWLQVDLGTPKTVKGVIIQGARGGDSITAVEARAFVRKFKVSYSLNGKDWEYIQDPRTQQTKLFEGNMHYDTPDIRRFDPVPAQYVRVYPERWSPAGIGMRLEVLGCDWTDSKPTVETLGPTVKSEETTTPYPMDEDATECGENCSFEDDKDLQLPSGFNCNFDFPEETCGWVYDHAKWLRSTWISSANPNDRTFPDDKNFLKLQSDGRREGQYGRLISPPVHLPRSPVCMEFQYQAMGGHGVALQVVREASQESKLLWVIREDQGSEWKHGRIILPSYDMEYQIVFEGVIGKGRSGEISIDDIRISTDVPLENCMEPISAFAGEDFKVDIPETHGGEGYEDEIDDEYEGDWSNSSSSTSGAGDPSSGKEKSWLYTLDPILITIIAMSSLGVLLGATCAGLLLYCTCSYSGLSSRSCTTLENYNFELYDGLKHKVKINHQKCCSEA
The description is as above. Particulars: remark: other sources report otherwise.

The chains behind the UniProt entries cited, without tags or fusion partners.
UniProt Q9CQ22: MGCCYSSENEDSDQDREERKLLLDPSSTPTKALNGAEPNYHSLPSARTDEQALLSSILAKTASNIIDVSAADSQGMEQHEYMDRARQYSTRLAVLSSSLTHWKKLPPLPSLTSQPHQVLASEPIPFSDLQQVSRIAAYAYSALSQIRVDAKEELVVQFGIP
UniProt P49817: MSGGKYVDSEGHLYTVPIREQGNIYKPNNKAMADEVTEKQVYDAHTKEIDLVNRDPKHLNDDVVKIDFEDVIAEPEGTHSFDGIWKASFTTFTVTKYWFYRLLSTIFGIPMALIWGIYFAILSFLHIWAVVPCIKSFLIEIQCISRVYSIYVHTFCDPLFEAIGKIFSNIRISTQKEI

Results are given in words; binding and its absence hold for the method and conditions named. Binding seen in cells or lysates may run through a third protein. A yes stands for co-enrichment or nearness to the bait. Other partners may have been found. For some assays here: A no says only that the protein was not detected with the bait.

Take Lamtor1 (from UniProt Q9CQ22 1-161): the binding entry in test [1] is reported as “binds”. Regarding caveolin-1 (from UniProt P49817 1-178), in test [1], the binding entry is “binds”.

B1: Scamp1 (protein, UniProt Q8K021 1-338)
chain: MSDFDSNPFADPDLNNPFKDPSVTQVTRNVPPGLDEYNPFSDSRTPPPGSVKMPNVPNTQPAIMKPTEEHPAYTQITKEHALAQAELLKRQEELERKAAELDRREREMQNLSQHGRKNNWPPLPSNFPVGPCFYQDFSVDIPVEFQKTVKLMYYLWMFHAVTLFLNIFGCLAWFCVDSSRAVDFGLSILWFLLFTPCSFVCWYRPLYGAFRSDSSFRFFVFFFVYICQFAVHVLQAAGFHNWGNCGWISSLTGLNKNIPVGIMMIIIAALFTASAVISLVMFKKVHGLYRTTGASFEKAQQEFATGVMSNKTVQTAAANAASTAATSAAQNAFKGNQM
In the case of B1, the binding entry in test [1] is listed as “binds”.

B2: Neuropilin-1 (NRP1), P97333 22-923 (receptor)
chain: FRSDKCGGTIKIENPGYLTSPGYPHSYHPSEKCEWLIQAPEPYQRIMINFNPHFDLEDRDCKYDYVEVIDGENEGGRLWGKFCGKIAPSPVVSSGPFLFIKFVSDYETHGAGFSIRYEIFKRGPECSQNYTAPTGVIKSPGFPEKYPNSLECTYIIFAPKMSEIILEFESFDLEQDSNPPGGMFCRYDRLEIWDGFPEVGPHIGRYCGQKTPGRIRSSSGVLSMVFYTDSAIAKEGFSANYSVLQSSISEDFKCMEALGMESGEIHSDQITASSQYGTNWSVERSRLNYPENGWTPGEDSYKEWIQVDLGLLRFVTAVGTQGAISKETKKKYYVKTYRVDISSNGEDWISLKEGNKAIIFQGNTNPTDVVLGVFSKPLITRFVRIKPVSWETGISMRFEVYGCKITDYPCSGMLGMVSGLISDSQITASNQADRNWMPENIRLVTSRTGWALPPSPHPYTNEWLQVDLGDEKIVRGVIIQGGKHRENKVFMRKFKIAYSNNGSDWKTIMDDSKRKAKSFEGNNNYDTPELRTFSPLSTRFIRIYPERATHSGLGLRMELLGCEVEAPTAGPTTPNGNPVDECDDDQANCHSGTGDDFQLTGGTTVLATEKPTIIDSTIQSEFPTYGFNCEFGWGSHKTFCHWEHDSHAQLRWSVLTSKTGPIQDHTGDGNFIYSQADENQKGKVARLVSPVVYSQSSAHCMTFWYHMSGSHVGTLRVKLRYQKPEEYDQLVWMVVGHQGDHWKEGRVLLHKSLKLYQVIFEGEIGKGNLGGIAVDDISINNHISQEDCAKPTDLDKKNTEIKIDETGSTPGYEGEGEGDKNISRKPGNVLKTLDPILITIIAMSALGVLLGAVCGVVLYCACWHNGMSERNLSALENYNFELVDGVKLKKDKLNPQSNYSEA
With B2, the binding result in test [2] is “no binding”.

B3: Rab11Fip5 (protein, UniProt Q8R361 1-645)
chain: MALVRDPEPAAGSSRWLPTHVQVTVLRASGLRGKSSGAGSTSDAYTVIQVGREKYSTSVVEKTQGCPEWCEECSFELPPGALDGLLRAQEADAGPAPWASGPNAACELVLTTMHRSLIGVDKFLGRATVALDEVFRAGRAQHTQWYRLHSKPGKKEKERGEIQVTIQFTRNNLSASMFDLSMKDKPRSPFSKLKDRVKGKKKYDLESASAILPSSALEDPELGSLGKMGKAKGFFLRNKLRKSSLTQSNTSLGSDSTLSSTSGSLVYQGPGAELLTRSPSHSSWLSTEGGRDSIQSPKLLTHKRTYSDEASQLRAAPPRALLELQGHLDGASRSSLCVNGSHVYNEEPQPPLRHRSSISGPFPPSSSLHSVPPRSSEEGSRSSDDSWGRGSHGTSSSEAVPGQEELSKQAKGASCSGEEEGARLPEGKPVQVATPMVASSEAVAAEKDRKPRMGLFHHHHHQGLSRSEQGRRGSVGEKGSPSLGASPHHSSTGEEKAKSSWFGLRESKEPTQKPSPHPVKPLTAAPVEASPDRKQPRTSLSTALSSGLERLKTVTSGGIQSVLPASQLGSSVDTKRPKDSAVLDQSAKYYHLTHDELIGLLLQRERELSQRDEHVQELESYIDRLLVRIMETSPTLLQISPGPPK
For B3, in test [1], the binding entry was “binds”.

The values are drawn from paper PMC7264094.
